{"source": "PubChem BioAssay AID1259308 (NCATS, 2017)", "screen": "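Genes whose loss raises luciferase production in HEK293 cells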 (primary screen)", "cell system": "human HEK293 embryonic kidney cells stably expressing firefly luciferase (HEK-CMV-Luc2-Hygro)", "reagent": "single siRNA against human genes, 0.8 pmol siRNA per well", "timing": "72 h", "measured": "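Reporter luminescence and viable-cell signal on separate replicate plates, given as percent of non-targeting control and median/MAD z-scores, plus per-cell luciferase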", "reading the numbers": "total luciferase, z-score and total luciferase, % of control: higher = more reporter protein produced", "call rule": "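Active when the median/MAD z-score for overall luciferase is greater than 3; a gene was taken forward for validation with new siRNAs if at least two of its three siRNAs passed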", "meaning of the calls": "active = raised luciferase; inactive = no rise", "note": "Shown is an unselected part of about 59,000 reagents tested. About 1,510 of them (2.6%) were called active. 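Calls use total luciferase alone and ignore viability, so some active siRNAs may act by altering cell number.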 Entries without a mark were called inactive. Reagents against one gene are numbered here. Not all columns of the deposit are shown."}
{"Gene": "AKR1D1", "siRNA no.": 1, "total luciferase, z-score": 0.408, "total luciferase, % of control": 90}
{"Gene": "AKR1D1", "siRNA no.": 2, "total luciferase, z-score": -0.0351, "total luciferase, % of control": 81.2}
{"Gene": "AKR1D1", "siRNA no.": 3, "total luciferase, z-score": 1.58, "total luciferase, % of control": 113}
{"Gene": "ZNF689", "siRNA no.": 1, "total luciferase, z-score": -0.933, "total luciferase, % of control": 63.3}
{"Gene": "ZNF689", "siRNA no.": 2, "total luciferase, z-score": 1.35, "total luciferase, % of control": 109}
{"Gene": "ZNF689", "siRNA no.": 3, "total luciferase, z-score": 0.0624, "total luciferase, % of control": 83.1}
{"Gene": "SLC25A21", "siRNA no.": 1, "total luciferase, z-score": -0.355, "total luciferase, % of control": 74.8}
{"Gene": "SLC25A21", "siRNA no.": 2, "total luciferase, z-score": -1.53, "total luciferase, % of control": 51.4}
{"Gene": "SLC25A21", "siRNA no.": 3, "total luciferase, z-score": 1.98, "total luciferase, % of control": 121}
{"Gene": "CXCR4", "siRNA no.": 1, "total luciferase, z-score": 0.111, "total luciferase, % of control": 84.1}
{"Gene": "CXCR4", "siRNA no.": 2, "total luciferase, z-score": 1.58, "total luciferase, % of control": 113}
{"Gene": "CXCR4", "siRNA no.": 3, "total luciferase, z-score": -1.26, "total luciferase, % of control": 56.8}
{"Gene": "CCDC62", "siRNA no.": 1, "total luciferase, z-score": -0.671, "total luciferase, % of control": 68.5}
{"Gene": "CCDC62", "siRNA no.": 2, "total luciferase, z-score": 0.0888, "total luciferase, % of control": 83.7}
{"Gene": "CCDC62", "siRNA no.": 3, "total luciferase, z-score": 0.0199, "total luciferase, % of control": 82.3}
{"Gene": "PAGE5", "siRNA no.": 1, "total luciferase, z-score": -0.212, "total luciferase, % of control": 77.7}
{"Gene": "PAGE5", "siRNA no.": 2, "total luciferase, z-score": -0.0306, "total luciferase, % of control": 81.3}
{"Gene": "PAGE5", "siRNA no.": 3, "total luciferase, z-score": 0.776, "total luciferase, % of control": 97.3}
{"Gene": "CAPN6", "siRNA no.": 1, "total luciferase, z-score": 0.365, "total luciferase, % of control": 89.1}
{"Gene": "CAPN6", "siRNA no.": 2, "total luciferase, z-score": -0.457, "total luciferase, % of control": 72.8}
{"Gene": "CAPN6", "siRNA no.": 3, "total luciferase, z-score": -0.81, "total luciferase, % of control": 65.8}
{"Gene": "MIR4453HG", "siRNA no.": 1, "total luciferase, z-score": 0.125, "total luciferase, % of control": 84.4}
{"Gene": "MIR4453HG", "siRNA no.": 2, "total luciferase, z-score": 0.322, "total luciferase, % of control": 88.3}
{"Gene": "MIR4453HG", "siRNA no.": 3, "total luciferase, z-score": 2.48, "total luciferase, % of control": 131}
{"Gene": "PF4V1", "siRNA no.": 1, "total luciferase, z-score": -0.184, "total luciferase, % of control": 78.2}
{"Gene": "PF4V1", "siRNA no.": 2, "total luciferase, z-score": -0.351, "total luciferase, % of control": 74.9}
{"Gene": "PF4V1", "siRNA no.": 3, "total luciferase, z-score": -1.31, "total luciferase, % of control": 55.9}
{"Gene": "CCT2", "siRNA no.": 1, "total luciferase, z-score": "3.31 (active)", "total luciferase, % of control": 148}
{"Gene": "CCT2", "siRNA no.": 2, "total luciferase, z-score": "4 (active)", "total luciferase, % of control": 161}
{"Gene": "CCT2", "siRNA no.": 3, "total luciferase, z-score": "3.26 (active)", "total luciferase, % of control": 147}
{"Gene": "GTF2IRD1P1", "siRNA no.": 1, "total luciferase, z-score": -0.944, "total luciferase, % of control": 63.1}
{"Gene": "GTF2IRD1P1", "siRNA no.": 2, "total luciferase, z-score": -0.784, "total luciferase, % of control": 66.3}
{"Gene": "GTF2IRD1P1", "siRNA no.": 3, "total luciferase, z-score": -0.474, "total luciferase, % of control": 72.5}
{"Gene": "SRGN", "siRNA no.": 1, "total luciferase, z-score": -2.44, "total luciferase, % of control": 33.3}
{"Gene": "SRGN", "siRNA no.": 2, "total luciferase, z-score": 0.438, "total luciferase, % of control": 90.6}
{"Gene": "SRGN", "siRNA no.": 3, "total luciferase, z-score": 0.426, "total luciferase, % of control": 90.4}
{"Gene": "EMD", "siRNA no.": 1, "total luciferase, z-score": 1.02, "total luciferase, % of control": 102}
{"Gene": "EMD", "siRNA no.": 2, "total luciferase, z-score": 1.26, "total luciferase, % of control": 107}
{"Gene": "EMD", "siRNA no.": 3, "total luciferase, z-score": -0.492, "total luciferase, % of control": 72.1}
{"Gene": "RAB20", "siRNA no.": 1, "total luciferase, z-score": 0.181, "total luciferase, % of control": 85.5}
{"Gene": "RAB20", "siRNA no.": 2, "total luciferase, z-score": 0.207, "total luciferase, % of control": 86}
{"Gene": "RAB20", "siRNA no.": 3, "total luciferase, z-score": -1.9, "total luciferase, % of control": 44.2}
